# ± gives the standard deviation. The list shows a part of the results, in another mix than the full data. Many of these values have a large error.
# Experiments:
# [1] = tested on: MIWI (PIWIL1) piRISC loaded with piRNA #1 (30 nt); experiment: pre-steady-state target cleavage rate (min^-1); higher = faster piRNA-guided slicing of the target; details: guide: piRNA #1 5'p-UGAGGUAGUAGGUUGUAUAGUAUCCAGAGG; auxiliary factor: 500 nM mouse GTSF1
# Outline: (§1)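 The pre-steady-state cleavage rate came from a burst-and-steady-state fit to pooled data from three Cleave-'n-Seq trials, in which uncleaved targets were sequenced and normalised to depth and to weakly complementary targets. Each reaction held 0.1 nM transcribed, DNA-blocked target RNA library and 1 nM active affinity-purified piRISC carrying one synthetic guide, with or without 500 nM GTSF1 partner protein, in HEPES–potassium acetate buffer at 33 °C for 0–8 or 0–960 min. k3 was capped at 0.0001 min^-1.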
# [2] = tested on: EfPiwi piRISC loaded with piRNA #1 (26 nt); experiment: pre-steady-state target cleavage rate (min^-1); guide: piRNA #1 5'p-UGAGGUAGUAGGUUGUAUAGUAUCCA; MIWI and MILI are mouse PIWI proteins and EfPiwi is from a freshwater sponge; tags in brackets are library labels; higher = faster piRNA-guided slicing of the target; details: auxiliary factor: 500 nM Ephydatia muelleri Gtsf1
# Outline: as §1
Sequence,pre-steady-state target cleavage rate [1],pre-steady-state target cleavage rate [2]
GGAGACCUAUGUAAACUACCUACUACCUCA,0.000252 ± 0.012,0.00077 ± 0.0074
GGAGACCUAUGAUAAUCAACCUACUACCUCA,0.000847 ± 0.0049,0.000973 ± 0.0077
GGAGACCUAUGAUUACAUCCUACUUCCUCA,0.00119 ± 0.0057,0.00047 ± 0.0059
GGAGACCUAUGAAUACAACCUAGCUACCUCA,0.00153 ± 0.004,0.000988 ± 0.0069
GGAGACCUAUGUAUACAACCAACUACCUCA,0.00174 ± 0.0024,0.000861 ± 0.007
GGAGACCUAUGAAUACAUCCUACAACCUCA,0.00023 ± 0.0074,0.000727 ± 0.0077
GGAGACCUAUGUAUAGCAACCUACUACCUCA,0.00159 ± 0.0033,0.00125 ± 0.0065
GGAGACCUAUGAAUACAACCUACUAACCUCA,0.00192 ± 0.0031,0.000438 ± 0.0095
GGAGACCUAUGAUAACAACCUAAUACCUCA,0.000394 ± 0.0068,0.000163 ± 0.019
GGAGACCUAUGAUAUCAACCUACGUACCUCA,0.000235 ± 0.012,0.000102 ± 0.036
GGAGACCUAUGAAUACAACCUACGACCUCA,0.00105 ± 0.0039,0.000883 ± 0.01
GGAGACCUAUGAAUACAACCUACUACCCUCA,0.0015 ± 0.0031,0.00063 ± 0.0096
GGAGACCUAUGAUAUGUUGCUACUAUCCUCA,0.000725 ± 0.01,0.000195 ± 0.015
GGAGACCUAUGAUAUGUUCCUACUAGGUCA,0.000141 ± 0.041,0.000384 ± 0.013
GGAGACCUAUCUAUACAACCUACAAGCUCA,0.00185 ± 0.0044,0.000603 ± 0.01
GGAGACCUAUGAUAACAAGCUAGUACCUCA,0.00079 ± 0.0049,0.00031 ± 0.011
GGAGACCUAUGAUAACAAACUACUACCUCA,0.000366 ± 0.0064,0.000338 ± 0.01
GGAGACCUAUGAAGACAACCUACUACCUCA,0.00249 ± 0.0039,0.00358 ± 0.0041
GGAGACCUAUGAUUACAAGCUACUAGCUCA,0.000839 ± 0.0082,0.00233 ± 0.0048
GGAGACCUAUGAAUACAACAUACUACCUCA,0.000364 ± 0.0045,0.00112 ± 0.0073

Sequence,pre-steady-state target cleavage rate [1],pre-steady-state target cleavage rate [2]
GGAGACCUAACUCAUACAACCUACUACCUCA,0.00566 ± 0.0062,0.0159 ± 0.0089
GGAGACCUAUGAAUACAACCUACUUCCUCA,0.000655 ± 0.0035,0.000481 ± 0.004
GGAGACCUAUGAAUACAACCUACAACCUCA,0.000332 ± 0.0076,0.000389 ± 0.006
GGAGACCUAACUAUACAAGCAACUACCUCA,0.00333 ± 0.0038,0.000483 ± 0.0066
GGAGACCUAUGAUUACAUCCUACUACCUCA,0.00137 ± 0.0038,0.00134 ± 0.0035
GGAGACCUAACAAUACAACCUACAACCUCA,0.00188 ± 0.0075,0.00197 ± 0.0058
GGAGACCUAUGAUUACAACAUACUACCUCA,0.00152 ± 0.003,0.00211 ± 0.0056
GGAGGGGAUACUAUACAACCUACUACCUCA,1.51 ± 0.069,0.209 ± 0.067
GGAGACCUAUGAAUACAACCUACUACCUCC [g2:g18:cont:t1C],0.00183 ± 0.0028,0.00214 ± 0.0041
GGAGACCUAUGAAUACAUCCUACUACCUCA,0.00119 ± 0.0041,0.00148 ± 0.0042
GGAGACCUAUGUAUACAACGUACUACCUGA,0.00174 ± 0.0029,0.00138 ± 0.0035
GGAGACCUAUGAAAACAACCUACUUCCUCA,0.000924 ± 0.0043,0.00053 ± 0.0063
GGAGACCUAUGAUAUGUUGGUCACUACCUCA,0.00121 ± 0.0044,0.000162 ± 0.021
GGAGACCUAUGAUAAACAACCUACUACCUCA,0.00237 ± 0.005,0.00281 ± 0.0041
GGAGACCUAUGUAUACAUCCUACUUCCUCA,0.00248 ± 0.0027,0.000603 ± 0.0061
GGAGACCUAUGAUAUCAACGCUACUACCUCA,0.000107 ± 0.021,0.00103 ± 0.0072
GGAGACCUAUGAUUACAACCUACCACCUCA,0.00192 ± 0.0044,0.00132 ± 0.008
GGAGACCUAUGAUAACAUCCUACUAGCUCA,0.000324 ± 0.014,0.00044 ± 0.0096
GGAGACCUAUGAUAUGUUGGUUCUUCCUCA,0.000291 ± 0.013,0.000934 ± 0.0063
GGAGACCUAUGAUAACAACUUACUACCUCA,0.00104 ± 0.0048,0.000285 ± 0.007

# Copied from the list:
# For pre-steady-state target cleavage rate [2], GGAGACCUAUGAAUACAACCUACUUCCUCA is listed with 0.000481 ± 0.004
# For pre-steady-state target cleavage rate [2], GGAGACCUAUGAAAACAACCUACUUCCUCA is listed with 0.00053 ± 0.0063

# Further results follow.

Sequence,pre-steady-state target cleavage rate [1],pre-steady-state target cleavage rate [2]
GGAGACCUAUGAAUACAAGCUACUACCACA,0.000336 ± 0.0056,0.000154 ± 0.021
GGAGACCUAUGAUUUCAUCCUACUACCUCA,0.000805 ± 0.0065,0.00175 ± 0.0048
GGAGACCUAUGAAUACAACCUACUACCAUCA,0.000986 ± 0.0036,0.000804 ± 0.0087
GGAGACCUAUGUAUAGAACGUACUACCUCA,0.000547 ± 0.0029,0.000255 ± 0.01
GGAGACCUAUGAUUACAACCUACUUCCUCA,0.000297 ± 0.0058,0.00182 ± 0.0048
GGAGACCUAUGAUAUGUUGGUAACUACCUCA,0.000641 ± 0.0077,0.000584 ± 0.0067
GGAGACCUAUGAUAACAACCUACUUACCUCA,0.00111 ± 0.004,0.000305 ± 0.018
GGAGACCUAUGUAUACUACCUACAACCUCA,0.000747 ± 0.0078,0.00025 ± 0.011
GGAGACCUAUGAUAACAACCUACUACGCUCA,0.00157 ± 0.0033,< 0.0001
GGAGACCUAUGAUUACAACCUACAACCUCA,0.000331 ± 0.0065,0.00134 ± 0.0049
GGAGACCUAUCAAUACAACCUACUUCCUCA,0.00175 ± 0.0041,0.00129 ± 0.0039
GGAGACCUAUGAUAUGUACGUACAACCUCA,0.000237 ± 0.018,0.000198 ± 0.014
GGAGACCAUACUAUACAACCUACACCUCA,0.00114 ± 0.0052,0.00776 ± 0.0044
GGAGACCUAUGUAUAGUUCCUACUACCUCA,0.000968 ± 0.0059,0.00209 ± 0.0042
GGAGACCUAUGUAUACUUCCUACUACCUCA,0.000996 ± 0.0042,0.00116 ± 0.0067
GGAGACCUAAAUAUACAACCUACUACCUCA,0.106 ± 0.021,0.0102 ± 0.0046
GGAGACCUAACUAUAGAACCUACUACCUGA,0.188 ± 0.066,0.000927 ± 0.0065
GGAGACCUAUGAUUACAACCUACUACCUCCA,0.00128 ± 0.0035,0.00152 ± 0.0054
GGAGACCAUACUAUACAACCUUGAACCUCA,0.000226 ± 0.018,0.000135 ± 0.02
GGAGACCUAUGAUAACAACCUACUGCCUCA,0.000456 ± 0.013,0.000756 ± 0.0071

# 2 neighbouring records from above:
Sequence,pre-steady-state target cleavage rate [1],pre-steady-state target cleavage rate [2]
GGAGACCUAUGUAUACUUCCUACUACCUCA,0.000996 ± 0.0042,0.00116 ± 0.0067
GGAGACCUAAAUAUACAACCUACUACCUCA,0.106 ± 0.021,0.0102 ± 0.0046
